Test results published in the supplement of paper PMC12595434, “Development of retinoid nuclear receptor pathway antagonists through targeting aldehyde dehydrogenase 1A3” (iScience, 2025).
This is one part of the list. Single values of this set are uncertain.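 Many melting curves are irregular; where none melted, Tm was taken as 64 °C.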

The chains behind the UniProt entries cited, without tags or fusion partners. Where a name states a change or a piece, a line headed by the entry shows the natural chain unless it says otherwise.
UniProt P81877: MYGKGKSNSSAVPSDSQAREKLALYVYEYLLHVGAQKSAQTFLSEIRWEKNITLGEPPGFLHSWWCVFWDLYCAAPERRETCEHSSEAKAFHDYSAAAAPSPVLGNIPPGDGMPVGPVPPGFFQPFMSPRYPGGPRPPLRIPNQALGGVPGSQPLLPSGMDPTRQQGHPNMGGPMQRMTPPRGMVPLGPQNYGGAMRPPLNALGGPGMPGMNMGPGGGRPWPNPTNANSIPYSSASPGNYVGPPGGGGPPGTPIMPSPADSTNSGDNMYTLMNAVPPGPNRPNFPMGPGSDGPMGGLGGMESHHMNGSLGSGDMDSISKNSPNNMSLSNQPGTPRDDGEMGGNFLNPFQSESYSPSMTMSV
UniProt Q03393: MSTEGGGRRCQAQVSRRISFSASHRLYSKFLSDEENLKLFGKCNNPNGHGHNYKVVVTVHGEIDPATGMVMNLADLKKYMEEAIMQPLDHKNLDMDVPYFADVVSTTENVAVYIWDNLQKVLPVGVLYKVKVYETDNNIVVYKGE
UniProt Q0JRZ9: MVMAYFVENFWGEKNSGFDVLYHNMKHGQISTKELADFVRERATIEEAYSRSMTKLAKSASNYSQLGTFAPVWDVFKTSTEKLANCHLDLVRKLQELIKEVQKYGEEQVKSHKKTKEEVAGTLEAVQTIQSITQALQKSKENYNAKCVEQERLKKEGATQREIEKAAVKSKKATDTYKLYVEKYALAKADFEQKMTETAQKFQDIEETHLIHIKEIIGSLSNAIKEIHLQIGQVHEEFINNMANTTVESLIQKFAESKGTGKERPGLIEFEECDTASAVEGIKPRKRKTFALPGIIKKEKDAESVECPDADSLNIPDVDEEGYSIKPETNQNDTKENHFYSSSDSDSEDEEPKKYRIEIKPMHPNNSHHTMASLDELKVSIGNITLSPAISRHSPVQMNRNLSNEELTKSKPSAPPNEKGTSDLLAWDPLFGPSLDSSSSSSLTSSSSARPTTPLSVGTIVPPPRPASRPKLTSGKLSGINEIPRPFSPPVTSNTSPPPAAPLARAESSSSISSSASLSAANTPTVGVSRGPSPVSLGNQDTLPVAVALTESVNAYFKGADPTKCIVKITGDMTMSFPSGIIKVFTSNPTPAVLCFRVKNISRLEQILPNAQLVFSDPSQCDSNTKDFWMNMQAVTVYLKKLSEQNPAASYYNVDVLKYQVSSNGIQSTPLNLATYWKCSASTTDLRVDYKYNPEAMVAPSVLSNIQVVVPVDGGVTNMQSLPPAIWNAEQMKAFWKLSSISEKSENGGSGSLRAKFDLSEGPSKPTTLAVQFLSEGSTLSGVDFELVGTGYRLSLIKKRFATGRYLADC
UniProt Q01484: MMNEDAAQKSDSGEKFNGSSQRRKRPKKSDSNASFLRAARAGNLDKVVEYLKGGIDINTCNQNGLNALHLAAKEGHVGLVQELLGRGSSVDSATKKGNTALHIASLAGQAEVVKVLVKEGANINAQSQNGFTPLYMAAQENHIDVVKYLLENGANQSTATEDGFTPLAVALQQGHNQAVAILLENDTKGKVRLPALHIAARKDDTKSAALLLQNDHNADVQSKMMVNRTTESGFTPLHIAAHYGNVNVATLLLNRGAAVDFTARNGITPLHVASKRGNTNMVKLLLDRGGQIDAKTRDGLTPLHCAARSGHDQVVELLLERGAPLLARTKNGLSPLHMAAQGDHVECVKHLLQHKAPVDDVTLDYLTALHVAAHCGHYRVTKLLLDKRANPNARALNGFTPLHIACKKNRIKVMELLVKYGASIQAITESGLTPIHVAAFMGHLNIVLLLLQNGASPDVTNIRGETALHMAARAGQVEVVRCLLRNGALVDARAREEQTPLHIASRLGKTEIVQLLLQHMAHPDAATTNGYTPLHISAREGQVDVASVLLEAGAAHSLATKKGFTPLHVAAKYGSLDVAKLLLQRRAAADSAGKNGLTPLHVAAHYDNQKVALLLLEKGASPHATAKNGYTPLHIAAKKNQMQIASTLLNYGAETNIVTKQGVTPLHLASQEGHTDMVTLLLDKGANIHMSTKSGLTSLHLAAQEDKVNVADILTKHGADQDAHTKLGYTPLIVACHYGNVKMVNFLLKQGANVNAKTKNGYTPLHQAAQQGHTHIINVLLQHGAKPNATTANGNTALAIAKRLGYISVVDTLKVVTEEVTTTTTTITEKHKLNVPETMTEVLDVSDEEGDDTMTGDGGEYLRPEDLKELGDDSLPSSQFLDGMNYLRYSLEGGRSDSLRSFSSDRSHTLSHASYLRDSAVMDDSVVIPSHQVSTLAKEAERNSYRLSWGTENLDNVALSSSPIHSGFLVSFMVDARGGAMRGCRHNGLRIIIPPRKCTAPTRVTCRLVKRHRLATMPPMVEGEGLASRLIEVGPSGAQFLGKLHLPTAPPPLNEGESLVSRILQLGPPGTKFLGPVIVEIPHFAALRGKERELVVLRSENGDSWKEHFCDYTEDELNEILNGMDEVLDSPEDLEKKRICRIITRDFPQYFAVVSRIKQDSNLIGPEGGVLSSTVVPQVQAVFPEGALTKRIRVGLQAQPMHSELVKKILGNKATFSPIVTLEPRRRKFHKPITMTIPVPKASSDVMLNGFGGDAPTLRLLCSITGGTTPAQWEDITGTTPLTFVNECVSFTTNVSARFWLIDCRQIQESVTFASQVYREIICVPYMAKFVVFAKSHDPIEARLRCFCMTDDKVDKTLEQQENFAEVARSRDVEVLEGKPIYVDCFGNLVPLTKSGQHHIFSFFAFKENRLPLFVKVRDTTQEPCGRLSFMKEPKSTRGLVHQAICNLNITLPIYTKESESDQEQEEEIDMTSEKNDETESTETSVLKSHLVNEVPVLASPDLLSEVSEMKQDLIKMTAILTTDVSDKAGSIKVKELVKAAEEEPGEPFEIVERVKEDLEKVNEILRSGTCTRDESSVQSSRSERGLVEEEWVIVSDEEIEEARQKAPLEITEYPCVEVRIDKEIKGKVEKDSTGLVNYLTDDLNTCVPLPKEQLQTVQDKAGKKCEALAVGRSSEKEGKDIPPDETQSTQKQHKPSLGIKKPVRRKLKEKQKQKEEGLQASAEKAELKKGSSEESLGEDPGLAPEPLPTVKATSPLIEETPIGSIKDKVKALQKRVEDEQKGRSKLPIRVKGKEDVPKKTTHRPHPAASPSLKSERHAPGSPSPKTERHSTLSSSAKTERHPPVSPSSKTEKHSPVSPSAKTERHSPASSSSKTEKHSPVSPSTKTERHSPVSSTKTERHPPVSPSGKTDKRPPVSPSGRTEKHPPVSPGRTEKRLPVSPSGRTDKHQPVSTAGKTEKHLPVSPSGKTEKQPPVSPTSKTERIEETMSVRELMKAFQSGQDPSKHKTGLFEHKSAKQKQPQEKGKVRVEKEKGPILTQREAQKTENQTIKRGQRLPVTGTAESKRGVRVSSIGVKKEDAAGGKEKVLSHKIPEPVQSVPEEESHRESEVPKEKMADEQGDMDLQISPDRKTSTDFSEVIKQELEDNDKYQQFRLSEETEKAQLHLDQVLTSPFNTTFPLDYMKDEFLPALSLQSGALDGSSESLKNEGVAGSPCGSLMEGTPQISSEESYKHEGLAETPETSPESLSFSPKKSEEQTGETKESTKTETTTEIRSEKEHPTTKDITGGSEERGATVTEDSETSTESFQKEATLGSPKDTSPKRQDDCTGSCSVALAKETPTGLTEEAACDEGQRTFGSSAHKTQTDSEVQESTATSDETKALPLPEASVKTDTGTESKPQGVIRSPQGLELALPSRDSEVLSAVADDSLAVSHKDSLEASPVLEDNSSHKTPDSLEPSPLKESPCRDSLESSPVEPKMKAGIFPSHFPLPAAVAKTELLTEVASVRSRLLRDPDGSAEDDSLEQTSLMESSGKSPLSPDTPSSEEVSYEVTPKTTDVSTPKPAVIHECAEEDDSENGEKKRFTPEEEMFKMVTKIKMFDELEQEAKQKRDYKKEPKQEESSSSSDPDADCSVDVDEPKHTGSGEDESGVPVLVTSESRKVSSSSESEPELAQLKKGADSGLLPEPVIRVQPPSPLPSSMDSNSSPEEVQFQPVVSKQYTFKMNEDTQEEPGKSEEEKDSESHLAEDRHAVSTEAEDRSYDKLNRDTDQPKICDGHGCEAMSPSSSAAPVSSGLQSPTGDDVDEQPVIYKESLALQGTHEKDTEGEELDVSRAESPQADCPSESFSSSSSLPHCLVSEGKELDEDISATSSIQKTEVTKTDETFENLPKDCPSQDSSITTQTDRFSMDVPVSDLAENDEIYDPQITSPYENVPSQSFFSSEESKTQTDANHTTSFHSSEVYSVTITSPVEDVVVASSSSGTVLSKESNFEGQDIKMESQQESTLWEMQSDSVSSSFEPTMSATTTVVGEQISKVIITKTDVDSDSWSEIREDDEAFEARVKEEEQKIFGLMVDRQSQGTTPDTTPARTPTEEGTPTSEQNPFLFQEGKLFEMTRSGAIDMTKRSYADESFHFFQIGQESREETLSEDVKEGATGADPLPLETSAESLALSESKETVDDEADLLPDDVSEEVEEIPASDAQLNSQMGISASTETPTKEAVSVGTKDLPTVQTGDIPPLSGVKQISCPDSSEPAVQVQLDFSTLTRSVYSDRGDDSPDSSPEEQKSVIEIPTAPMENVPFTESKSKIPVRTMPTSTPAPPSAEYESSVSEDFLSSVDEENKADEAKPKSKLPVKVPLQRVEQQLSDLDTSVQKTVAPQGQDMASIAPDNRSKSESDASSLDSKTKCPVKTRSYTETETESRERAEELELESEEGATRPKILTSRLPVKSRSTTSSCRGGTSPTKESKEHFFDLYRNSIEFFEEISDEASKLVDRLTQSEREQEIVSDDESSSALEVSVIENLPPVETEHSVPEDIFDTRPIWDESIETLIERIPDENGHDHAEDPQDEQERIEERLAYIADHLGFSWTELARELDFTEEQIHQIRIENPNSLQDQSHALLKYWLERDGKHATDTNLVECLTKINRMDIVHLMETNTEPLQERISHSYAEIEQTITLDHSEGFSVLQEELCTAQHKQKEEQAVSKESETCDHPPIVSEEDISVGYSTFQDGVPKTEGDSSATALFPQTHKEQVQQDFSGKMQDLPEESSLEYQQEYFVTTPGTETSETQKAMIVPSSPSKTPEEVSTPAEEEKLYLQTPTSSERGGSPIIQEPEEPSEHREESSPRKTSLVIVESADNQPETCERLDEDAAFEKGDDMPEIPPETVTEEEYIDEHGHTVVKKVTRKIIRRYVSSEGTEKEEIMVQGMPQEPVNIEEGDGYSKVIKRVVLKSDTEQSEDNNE
UniProt P84077: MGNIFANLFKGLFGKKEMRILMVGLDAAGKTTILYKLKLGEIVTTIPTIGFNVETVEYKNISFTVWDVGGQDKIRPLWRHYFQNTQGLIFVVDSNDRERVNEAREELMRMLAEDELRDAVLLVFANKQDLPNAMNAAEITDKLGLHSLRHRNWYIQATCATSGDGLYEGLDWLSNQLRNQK
UniProt Q12974: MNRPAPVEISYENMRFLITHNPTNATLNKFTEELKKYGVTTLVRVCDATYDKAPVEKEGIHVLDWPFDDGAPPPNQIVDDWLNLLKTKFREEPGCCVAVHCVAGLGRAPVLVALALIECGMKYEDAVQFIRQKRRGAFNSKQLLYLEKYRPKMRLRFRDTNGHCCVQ
UniProt Q12872: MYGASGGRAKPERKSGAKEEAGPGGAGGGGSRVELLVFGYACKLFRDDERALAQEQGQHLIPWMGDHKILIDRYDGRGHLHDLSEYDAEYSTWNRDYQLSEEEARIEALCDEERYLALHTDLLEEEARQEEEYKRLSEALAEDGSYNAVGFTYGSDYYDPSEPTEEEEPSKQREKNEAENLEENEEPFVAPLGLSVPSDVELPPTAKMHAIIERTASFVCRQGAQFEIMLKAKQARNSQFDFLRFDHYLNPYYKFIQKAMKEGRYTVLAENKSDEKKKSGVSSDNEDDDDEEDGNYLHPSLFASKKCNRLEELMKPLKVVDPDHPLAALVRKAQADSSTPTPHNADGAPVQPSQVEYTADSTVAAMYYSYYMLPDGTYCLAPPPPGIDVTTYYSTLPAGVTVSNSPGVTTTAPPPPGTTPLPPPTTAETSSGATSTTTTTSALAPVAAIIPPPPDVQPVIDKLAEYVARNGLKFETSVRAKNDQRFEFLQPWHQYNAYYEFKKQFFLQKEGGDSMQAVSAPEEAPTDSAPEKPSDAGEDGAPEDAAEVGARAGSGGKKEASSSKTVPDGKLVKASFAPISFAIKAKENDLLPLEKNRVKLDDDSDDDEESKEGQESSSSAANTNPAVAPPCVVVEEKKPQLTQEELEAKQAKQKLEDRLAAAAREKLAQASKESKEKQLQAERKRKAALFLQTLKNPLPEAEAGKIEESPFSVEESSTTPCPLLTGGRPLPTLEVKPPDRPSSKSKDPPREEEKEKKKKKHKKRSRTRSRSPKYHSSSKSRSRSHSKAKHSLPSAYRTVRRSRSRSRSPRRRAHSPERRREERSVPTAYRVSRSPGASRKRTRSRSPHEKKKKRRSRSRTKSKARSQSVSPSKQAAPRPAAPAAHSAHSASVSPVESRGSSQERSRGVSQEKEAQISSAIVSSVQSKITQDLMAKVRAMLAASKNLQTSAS

Compound: CCc1cnccc1C(=O)Nc1cc2c(cc1F)NC(=O)CC2
Test: melting temperature shift (DMSO Tm minus MBE1-treated Tm) in cellular thermal proteome profiling; higher = less thermal stabilization by MBE1 (negative = stabilized by MBE1)
Conditions: A375

Target	melting temperature shift (MBE1 concentration: 100 nM)	melting temperature shift (MBE1 concentration: 1 uM)
UniProt Q12756	-2.28 °C	0.55 °C
EXOSC9 (UniProt Q06265)	0.348 °C	-0.418 °C
PPP1R8 (UniProt Q12972)	0.965 °C	0.403 °C
UniProt Q00536	-0.999 °C	0.703 °C
LGALS3BP (UniProt Q08380)	-1.57 °C	1.04 °C
RAD51 (UniProt Q06609)	-0.293 °C	0.22 °C
MRPS6 (UniProt P82932)	3.61 °C	2.4 °C
PTPN12 (UniProt Q05209)	-0.358 °C	-0.494 °C
ADAM17 (UniProt P78536)	-0.758 °C	-0.456 °C
SOS1 (UniProt Q07889)	0.122 °C	0.134 °C
PMPCA (UniProt Q10713)	-0.563 °C	0.287 °C
UniProt Q13029	-1.84 °C	0.195 °C
DST (UniProt Q03001)	6.94 °C	7.17 °C
UniProt P81877	-1.15 °C	0.194 °C
PURA (UniProt Q00577)	-0.843 °C	-2.67 °C
UniProt Q07343	-1.39 °C	-3.17 °C
MRPS10 (UniProt P82664)	1.22 °C	1.36 °C
AMPD2 (UniProt Q01433)	-0.873 °C	-0.165 °C
UniProt Q05655	-0.324 °C	0.153 °C
RELB (UniProt Q01201)	-0.353 °C	-0.146 °C
KLC1 (UniProt Q07866)	-0.512 °C	0.0733 °C
CRYZ (UniProt Q08257)	-0.719 °C	0.614 °C
PTPRJ (UniProt Q12913)	1.65 °C	0.873 °C
CAMSAP2 (UniProt Q08AD1)	0.403 °C	0.568 °C

Target	melting temperature shift (MBE1 concentration: 100 nM)	melting temperature shift (MBE1 concentration: 1 uM)
PTS (UniProt Q03393)	-1.37 °C	-0.871 °C
TRAP1 (UniProt Q12931)	-0.379 °C	0.318 °C
SRSF4 (UniProt Q08170)	0.983 °C	0.0122 °C
SF3A3 (UniProt Q12874)	-0.315 °C	-0.367 °C
SET (UniProt Q01105)	-1.11 °C	-0.739 °C
UniProt Q12962	-3.08 °C	-3.25 °C
TFCP2 (UniProt Q12800)	-0.378 °C	-0.808 °C
FCHO2 (UniProt Q0JRZ9)	0.818 °C	0.0488 °C
BLOC1S1 (UniProt P78537)	-1.79 °C	0.256 °C
ST3GAL4 (UniProt Q11206)	-0.516 °C	0.449 °C
UniProt Q01484	0.427 °C	0.354 °C
ACY1 (UniProt Q03154)	-3.37 °C	-2.4 °C
PLCB3 (UniProt Q01970)	-0.202 °C	-0.00611 °C
TBL3 (UniProt Q12788)	1.01 °C	0.33 °C
RBBP4 (UniProt Q09028)	-0.495 °C	12.4 °C
SSBP1 (UniProt Q04837)	-3.75 °C	-3.38 °C
UniProt P78312	-1.09 °C	2.06 °C
CDK6 (UniProt Q00534)	0.971 °C	0.837 °C
UniProt Q01831	-0.416 °C	-0.301 °C
RPP38 (UniProt P78345)	-0.181 °C	-0.255 °C
UniProt P84077	-1.84 °C	0.519 °C
RELA (UniProt Q04206)	0.592 °C	-0.147 °C
SCAP (UniProt Q12770)	-0.221 °C	-0.915 °C
DAB2 (UniProt P98082)	0.0847 °C	-0.42 °C

Target	melting temperature shift (MBE1 concentration: 100 nM)	melting temperature shift (MBE1 concentration: 1 uM)
KIF23 (UniProt Q02241)	0.047 °C	-0.268 °C
UniProt Q05193	0.434 °C	0.385 °C
PTPN11 (UniProt Q06124)	-0.22 °C	0.183 °C
TP53BP1 (UniProt Q12888)	-1.17 °C	-1.27 °C
UniProt Q01459	-0.745 °C	0.0305 °C
SPTBN1 (UniProt Q01082)	-0.55 °C	0.128 °C
CDC20 (UniProt Q12834)	0.953 °C	1.71 °C
PIP4K2B (UniProt P78356)	0.195 °C	-0.452 °C
RPL6 (UniProt Q02878)	-1.67 °C	-1.32 °C
UniProt P78559	-0.844 °C	0.195 °C
UniProt Q05397	-0.483 °C	0.637 °C
REL (UniProt Q04864)	0.214 °C	0.586 °C
BNIP1 (UniProt Q12981)	-0.248 °C	-0.396 °C
UniProt Q08174	-2.94 °C	-1.36 °C
AIMP1 (UniProt Q12904)	0.0941 °C	0.282 °C
UniProt Q07817	-1.25 °C	-1.73 °C
DHX9 (UniProt Q08211)	1.11 °C	0.305 °C
FOXK1 (UniProt P85037)	0.368 °C	0.0366 °C
RBM6 (UniProt P78332)	-0.192 °C	-0.359 °C
NPRL3 (UniProt Q12980)	0.673 °C	-1.57 °C
MLLT1 (UniProt Q03111)	-0.238 °C	-0.177 °C
UniProt Q00537	0.119 °C	1.02 °C
COG7 (UniProt P83436)	-1.45 °C	-1.06 °C
GFPT1 (UniProt Q06210)	-1.05 °C	0.57 °C

Nothing new here: entries from further up.
Target	melting temperature shift (MBE1 concentration: 100 nM)	melting temperature shift (MBE1 concentration: 1 uM)
RBM6 (UniProt P78332)	-0.192 °C	-0.359 °C
NPRL3 (UniProt Q12980)	0.673 °C	-1.57 °C
MLLT1 (UniProt Q03111)	-0.238 °C	-0.177 °C
UniProt Q00537	0.119 °C	1.02 °C

Next results follow.

Target	melting temperature shift (MBE1 concentration: 100 nM)	melting temperature shift (MBE1 concentration: 1 uM)
CYCS (UniProt P99999)	-2.63 °C	-1.82 °C
FPGS (UniProt Q05932)	-0.48 °C	-0.634 °C
RPP30 (UniProt P78346)	-6.86 °C	2.43 °C
SCRN3 (UniProt Q0VDG4)	-0.511 °C	0.177 °C
OGDH (UniProt Q02218)	1.06 °C	0.562 °C
DPYD (UniProt Q12882)	-0.469 °C	0.839 °C
CDR2 (UniProt Q01850)	0.216 °C	0.0612 °C
UniProt Q06033	-2.58 °C	-0.319 °C
SP3 (UniProt Q02447)	-4.65 °C	-2.05 °C
BAX (UniProt Q07812)	-2.52 °C	-2.17 °C
NSUN2 (UniProt Q08J23)	-1.22 °C	-1.27 °C
MRPS9 (UniProt P82933)	-2.01 °C	-1.62 °C
UniProt Q07890	-0.974 °C	0.782 °C
UniProt Q12765	0.348 °C	0.501 °C
HNRNPU (UniProt Q00839)	-0.348 °C	-0.466 °C
PTP4A2 (UniProt Q12974)	-2.06 °C	0.503 °C
CAP1 (UniProt Q01518)	-0.302 °C	-0.248 °C
NOP14 (UniProt P78316)	-0.173 °C	-0.263 °C
LACTB (UniProt P83111)	-0.335 °C	0.557 °C
AKAP13 (UniProt Q12802)	1.11 °C	0.415 °C
UniProt P78368	-0.376 °C	0.838 °C
UniProt Q12872	-1.32 °C	-0.955 °C
